## Primary screen of a compound library

Amino acid sequences for entries named in this document (tags omitted). Residues count along the entry.
UniProt Q4DA54, 1-478: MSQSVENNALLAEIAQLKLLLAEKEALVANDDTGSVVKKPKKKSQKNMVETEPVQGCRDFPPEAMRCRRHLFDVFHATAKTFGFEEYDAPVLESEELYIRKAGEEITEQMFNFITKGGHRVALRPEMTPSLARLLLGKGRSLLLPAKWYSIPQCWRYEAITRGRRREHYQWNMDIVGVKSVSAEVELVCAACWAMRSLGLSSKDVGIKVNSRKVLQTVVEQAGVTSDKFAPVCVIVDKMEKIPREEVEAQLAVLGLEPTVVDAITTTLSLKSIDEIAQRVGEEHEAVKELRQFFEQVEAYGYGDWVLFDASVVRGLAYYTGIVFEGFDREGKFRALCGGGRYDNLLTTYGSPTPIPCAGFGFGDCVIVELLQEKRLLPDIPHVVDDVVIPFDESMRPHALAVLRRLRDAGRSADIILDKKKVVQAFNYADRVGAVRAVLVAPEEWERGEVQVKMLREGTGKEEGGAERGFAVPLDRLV
UniProt A4I591, 1-473: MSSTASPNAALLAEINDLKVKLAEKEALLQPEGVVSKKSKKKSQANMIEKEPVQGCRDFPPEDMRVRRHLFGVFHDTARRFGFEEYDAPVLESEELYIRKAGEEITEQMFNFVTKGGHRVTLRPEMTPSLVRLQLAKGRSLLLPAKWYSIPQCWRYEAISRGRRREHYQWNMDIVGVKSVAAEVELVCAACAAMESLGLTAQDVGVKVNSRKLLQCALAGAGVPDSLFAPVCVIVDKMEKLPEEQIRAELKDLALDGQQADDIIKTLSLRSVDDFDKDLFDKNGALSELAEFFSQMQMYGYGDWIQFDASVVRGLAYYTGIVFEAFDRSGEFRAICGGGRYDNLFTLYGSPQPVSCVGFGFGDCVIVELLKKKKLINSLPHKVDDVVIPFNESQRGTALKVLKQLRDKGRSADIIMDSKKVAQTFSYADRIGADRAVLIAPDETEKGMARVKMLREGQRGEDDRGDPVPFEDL

The filed quantity is “Percent Effect” (%).
The controls that fix the scale are not given in the record; negative values are as filed.
The compounds are a random part of those screened.

T. brucei: 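Whole-parasite assay of Trypanosoma brucei over 72 hours; the read-out is not stated. Tested at 30 µM. Higher reads as stronger inhibition (inferred: compounds with an IC50 in retests scored well above the rest). Values scatter widely below zero; nearly all retest evidence comes from the higher of the two concentrations used. Of about 64,000 compounds tested this way, about 940 (1.5%) reached 50% or more in at least one test.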
TcHisRS: 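Enzyme assay of histidyl-tRNA synthetase; the read-out is not stated. Target: Histidine-tRNA ligase, Trypanosoma cruzi CL Brener (UniProt Q4DA54). Concentration: 30 µM. The record gives no direction; compounds that gave an IC50 in retests scored well above the rest, so higher reads as stronger inhibition. Of about 69,000 compounds tested this way, about 31 (0.045%) reached 50% or more in at least one test.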
LiHisRS: 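Histidine-tRNA ligase, Leishmania infantum (UniProt A4I591). Enzyme assay of histidyl-tRNA synthetase; the read-out is not stated. Concentration: 30 µM. Direction is inferred from retests: higher values go with stronger inhibition. The assay is labelled LdHisRS but filed under L. infantum. About 69,000 compounds were tested under these conditions; 0.6% (about 410) showed 50% or more at least once.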

* CC(C)c1ncncc1C(=O)N1CCN(Cc2cccnc2)CC1 : T. brucei: 4.439%; TcHisRS: 4.046%; LiHisRS: 16.96%
* Cc1nn(CC(=O)N2CCN(c3cnccn3)CC2)c(C)c1Cl : T. brucei: 26.03%; TcHisRS: 1.667%; LiHisRS: 15.09%
* O=C(COc1ccc(Cl)cc1)N1CCN(c2cnccn2)CC1 : TcHisRS: 7.692%; LiHisRS: 18.8%
* CC(C)NC(=O)C1CN(C(=O)Cc2cccc(F)c2)CC12CCOCC2 (stereo unspecified) : T. brucei: -21.58%; TcHisRS: 8.537%; LiHisRS: 23.08%
* CCN1CCCC1(C)c1nc(C)cc(N)n1 (stereo unspecified) : TcHisRS: 6.923%; LiHisRS: 15.49%
* [H][C@@]12CNC(=O)N1CCN(Cc1nccs1)C2 : T. brucei: 23.6%
* O=C1Nc2ccccc2C12CCN(Cc1nccs1)CC2 : TcHisRS: 7.767%; LiHisRS: 15.38%
* CC(C)CC(NC(=O)c1ccco1)c1nc2cccnc2n1C (stereo unspecified) : T. brucei: 32.98%; TcHisRS: 0%; LiHisRS: 4.255%
* COc1c(C2CCCN2CC(=O)Nc2cccnc2)c(C)nn1C (stereo unspecified) : T. brucei: -0.7139%; TcHisRS: 5.263%; LiHisRS: 9.091%
* COCC(=O)N1CCCC1c1ccc(C(=O)NCCN2CCCCC2)s1 (stereo unspecified) : T. brucei: 3.193%; TcHisRS: 5.128%; LiHisRS: 12.24%
* COc1cccc(N2CC3(CCN(Cc4nccn4C)C3)CC2=O)c1 (stereo unspecified) : TcHisRS: 9.184%; LiHisRS: 15%
* Cc1ccc(N2CC[C@H]3O[C@@H](C(=O)N4CCCCO4)CC[C@H]32)nn1 : TcHisRS: -1.111%; LiHisRS: 0%
* O=C(Cc1ccccc1)N1CCn2cc(Cn3cncn3)nc2C1 : T. brucei: -227.3%; TcHisRS: 6.557%; LiHisRS: 10.53%
* CN(C)CC(=O)N1CCN(C(=O)c2cccc3[nH]ncc23)CC1 : T. brucei: -16.53%; TcHisRS: 1.127%; LiHisRS: 6.087%
* CNC(=O)CN1CCC(c2nn(C)c(=O)n2-c2ccccc2)CC1 : T. brucei: -12.63%; TcHisRS: 4.444%; LiHisRS: 12.82%
* CC(C)N(Cc1ccc(C(F)(F)F)nc1)Cc1cnn(C)c1 : TcHisRS: -4.831%; LiHisRS: 15.83%
* CCc1ccc(S(=O)(=O)Nc2cn(C)cc(Br)c2=O)cc1 : T. brucei: 8.1%; TcHisRS: 0%; LiHisRS: 9.615%
* Cc1nn(C)c(C)c1CC(=O)N1CCC(Nc2cccnn2)CC1 : T. brucei: -28.61%; TcHisRS: -1.141%; LiHisRS: 4%
* O=C(O)C(F)(F)F.O=C(O)C(F)(F)F.[H][C@@]12C[C@@H](OCc3cccnc3)CN1CCN(C(=O)c1cccc(F)c1)C2 : T. brucei: 20.65%
* CC1(C)CN(C(=O)c2cnc(CN3CCCC3)s2)CC[C@]1(C)O : T. brucei: -70.19%; TcHisRS: 8.235%; LiHisRS: 15.08%
* CN(C)C(=O)[C@H]1C[C@@H]2CCN(C3CCOCC3)C[C@@H]2O1 : TcHisRS: 0%; LiHisRS: 11.11%
* CNC(=O)c1cc(-c2ccccc2)nc2ncnn12 : TcHisRS: 2.632%; LiHisRS: 10.62%
* Cc1cn2c(n1)C(CNCC1=Cc3cc(Cl)ccc3OC1)CCC2 (stereo unspecified) : T. brucei: 99.66%; TcHisRS: 25%; LiHisRS: 31.53%
* O=C(NCc1cccs1)c1nc2c(o1)CN(CC1CC1)C2 : TcHisRS: 4.95%; LiHisRS: 31.51%

Repeated from the top, 3 entries:

* CC(C)c1ncncc1C(=O)N1CCN(Cc2cccnc2)CC1 | T. brucei: 4.439%; TcHisRS: 4.046%; LiHisRS: 16.96%
* Cc1nn(CC(=O)N2CCN(c3cnccn3)CC2)c(C)c1Cl | T. brucei: 26.03%; TcHisRS: 1.667%; LiHisRS: 15.09%
* O=C(COc1ccc(Cl)cc1)N1CCN(c2cnccn2)CC1 | TcHisRS: 7.692%; LiHisRS: 18.8%

Data taken from ChEMBL document CHEMBL3988442, “University of Dundee, Small-Polar-MMV Screening Library” (2021).